# This is one part of the list. The main result of the screen is listed elsewhere. These columns were measured beside it and carry no call. The list favours compounds with an active or inconclusive main result. Words in brackets tell the shape of the fitted curve; partial curves, single points and poor fits give uncertain potencies.
# Test: qHTS Assay for Lipid Storage Modulators in Drosophila S3 Cells;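 for cell number change: cells counted by Cell Tracker Red CMTPX staining in the red channel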
# Settings: BODIPY lipid droplet fluorescence, 18-24 h; for cell number change: measured here: cell count max response, cells fed with added oleic acid
# How it was run: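 Drosophila S3 cells loaded with oleic acid (400 uM, as added) and compounds at several concentrations; lipid droplets imaged by 488-nm laser-scanning cytometry, 500–530 nm intensity and object ratio to cell channel. Percent activity normalized to 20 uM Triacsin C.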
# [1] = measured here: cell number channel AC50, cells fed with added oleic acid
# [2] = measured here: lipid fluorescence (Fed channel) AC50, cells fed with added oleic acid
SMILES,cell number change [%],AC50 [1],AC50 [2]
COc1ccc(-n2c(SCC(=O)Nc3nccs3)nnc2-c2ccccc2)cc1,36.6,"0.326 µM [rising, partial curve, poor fit]","2.91 µM [rising, partial curve]"
CCOC(=O)c1c(C)[nH]c(C(=O)OC/C(O)=C(\C#N)c2nc3ccccc3[nH]2)c1C,-60.4,"20.6 µM [falling, partial curve]",–
CC/C(=N\NC(=O)Nc1nonc1N)c1ccc(OC)c(OC)c1,-5.66,–,"6.51 µM [rising, single point]"
CCN(CC)CCCNC(=O)c1cc2c(-c3ccc(Cl)cc3)nn(C)c2s1,–,"2.06 µM [rising, partial curve]","6.51 µM [rising, partial curve]"
Cc1ccc(S(=O)(=O)c2cc3c(=O)n4ccccc4nc3n(Cc3ccco3)c2=N)cc1,-15.2,–,"0.259 µM [rising, full curve]"
COc1ccccc1C1CC(c2ccccc2)Nc2ncnn21 (configuration not stated),-20.6,–,–
Cc1cccc2c(C(=O)O)cc(-c3cccnc3)nc12,-34.7,"0.58 µM [falling, full curve]","0.58 µM [falling, full curve]"
O=C(COc1ccccc1Br)NCCc1nc2ccccc2[nH]1,8.46,"0.231 µM [falling, full curve, poor fit]",–
Cc1ccc(NC(=O)CC(=O)Nc2ccc(C)cc2)cc1,-8.96,–,–
Cc1cccc(C)c1NC(=O)CNC(=O)c1c(C)nn(-c2ccccc2)c1C,2.93,–,"29.1 µM [rising, single point]"
CCCCc1ccc(S(=O)(=O)NNC(=S)NCc2ccco2)cc1,-26.8,"0.461 µM [falling, full curve, poor fit]","0.259 µM [falling, full curve]"
CCn1nc(C)c(C2C(C#N)=C(N)Oc3n[nH]c(C)c32)c1C (configuration not stated),-6.13,–,"0.731 µM [falling, full curve, poor fit]"
CNC(=O)N(O)C1N(/N=C/c2ccccc2OC)C(=S)SC1(C)C (configuration not stated),1.11,–,–
COCC(=O)Nc1nc2ccc(C)cc2s1,201,"16.4 µM [rising, partial curve]","23.1 µM [rising, partial curve]"
COc1ccccc1C1NC=C([N+](=O)[O-])C=C1[N+](=O)[O-] (configuration not stated),-46.4,"18.4 µM [falling, single point]","20.6 µM [falling, single point]"
C/C(=N\Nc1ccc(Cl)c(C(=O)O)c1)c1ccc2c(c1)OCO2,11.7,–,"20.6 µM [rising, single point]"
O=C(CSc1nnnn1-c1ccccc1)Nc1ncc(Cc2cc(Cl)ccc2Cl)s1,-26.4,–,"16.4 µM [falling, single point]"
CCCCCc1c(C)nc(N2CCc3ccccc32)[nH]c1=O,-18.9,"3.66 µM [falling, single point]","3.26 µM [falling, single point]"
O=C(NCc1ccccc1)C(c1ccco1)N(C(=O)c1csnn1)C1CC1 (configuration not stated),-31,"0.146 µM [falling, full curve, poor fit]",–
O=C(NCCS(=O)(=O)NCCc1ccccc1)c1ccccc1,44.2,"29.1 µM [rising, single point]",–

# Reformatted with bars between the fields: four of the compounds above.
SMILES | cell number change [%] | AC50 [1] | AC50 [2]
COc1ccccc1C1CC(c2ccccc2)Nc2ncnn21 (configuration not stated) | -20.6 | – | –
Cc1cccc2c(C(=O)O)cc(-c3cccnc3)nc12 | -34.7 | 0.58 µM [falling, full curve] | 0.58 µM [falling, full curve]
O=C(COc1ccccc1Br)NCCc1nc2ccccc2[nH]1 | 8.46 | 0.231 µM [falling, full curve, poor fit] | –
Cc1ccc(NC(=O)CC(=O)Nc2ccc(C)cc2)cc1 | -8.96 | – | –

# More records

SMILES,cell number change [%],AC50 [1],AC50 [2]
CC(C)Cn1nc(C(=O)OCC(=O)NCC(F)(F)F)c2ccccc2c1=O,-0.113,"0.092 µM [rising, partial curve, poor fit]",–
O=C(COc1ccc(Cl)cc1Cl)N/N=C1\CCCc2ccccc21,–,–,"6.51 µM [falling, single point]"
O=C(Cn1c(=O)oc2cc(S(=O)(=O)N3CCCC3)ccc21)NC1CCCc2ccccc21 (configuration not stated),–,–,"2.06 µM [falling, partial curve]"
COc1ccc(OC)c(NC(=O)CSc2nnc(Cn3c(=O)sc4ccccc43)n2C)c1,-39.2,"20.6 µM [falling, partial curve]","16.4 µM [falling, partial curve]"
COc1ccccc1N1CCN(Cc2c[nH]c3ccccc23)CC1,-0.558,–,"0.00517 µM [falling, full curve, poor fit]"
CCN(CC)S(=O)(=O)c1cccc(NC(=O)COc2ccc(C#N)cc2OC)c1,44,"6.51 µM [rising, partial curve]",–
CCn1cc(CN2CCCC(C(=O)Nc3ccc(-c4nc5ccccc5[nH]4)cc3)C2)c(C)n1 (configuration not stated),-11.1,–,–
CCOC(=O)C1CCCCN1Cc1cccc(OCc2ccccc2)c1 (configuration not stated),-6.56,–,"29.1 µM [rising, single point]"
O=C(NCc1cccc(C(F)(F)F)c1)N1CCN(S(=O)(=O)c2ccccc2F)CC1,7.83,–,–
COC(=O)c1[nH]nc2c1C(=O)N(Cc1ccccc1)C2=O,-6.18,"2.31 µM [falling, single point]","6.51 µM [falling, single point]"
O=CN1CCN(C(=O)c2cc3cc(Cl)ccc3[nH]2)CC1,22.9,"0.411 µM [rising, full curve, poor fit]","0.58 µM [rising, single point]"
O=C(/C=C/c1cccc(Br)c1)c1ccc2c(c1)OCO2,-14.1,–,–
CCOc1ccc(S(=O)(=O)NCc2ccccc2Cl)cc1C(N)=O,-5.01,–,"0.13 µM [rising, full curve, poor fit]"
COc1ccc(-c2nnn(CC(=O)N(CCN3CCOCC3)C(C(=O)NC3CCCC3)c3ccco3)n2)cc1 (configuration not stated),25.2,–,"4.61 µM [rising, full curve, poor fit]"
CCc1nnc(NS(=O)(=O)c2ccc(NC(=O)c3cccc(OC)c3)cc2)s1,-1.98,–,–
CCOC(=O)c1ccc(NC(=O)Nn2cnnc2)cc1,41.6,"5.17 µM [rising, partial curve, poor fit]",–
CCCCCCC1CC(=O)NC(=S)N1 (configuration not stated),63.6,"5.8 µM [rising, full curve, poor fit]","0.231 µM [rising, full curve, poor fit]"
CC(=O)c1ccc(S(=O)(=O)N2CCC(c3nc4ccccc4[nH]3)CC2)cc1,5.83,–,"0.13 µM [falling, full curve]"
c1ccc2sc(-c3ccc4c(c3)OCO4)nc2c1,0.711,–,"10.3 µM [rising, partial curve, poor fit]"
CC1CN(C(=O)C(C)N2CCN(c3ccccc3Cl)CC2)CC(C)O1 (configuration not stated),–,"0.58 µM [falling, single point]",–

SMILES,cell number change [%],AC50 [1],AC50 [2]
CCOC(=O)c1c(NC(=O)CSc2nnc(-c3c[nH]c4ccccc34)n2CCOC)sc2c1CCCCC2,–,–,"2.06 µM [rising, partial curve]"
CC(=O)c1ccc(OC(=O)c2cc3ccccc3oc2=O)cc1,72.3,"0.116 µM [rising, full curve]","29.1 µM [rising, partial curve, poor fit]"
CSc1nccc(Oc2cncc(Cl)c2)n1,-52.8,"23.1 µM [falling, single point]","29.1 µM [falling, single point]"
O=C(Nc1cc([N+](=O)[O-])ccc1F)c1ccc2ccccc2c1,–,–,"0.82 µM [rising, single point]"
COc1ccc(CNS(=O)(=O)NCc2ccccc2)cc1OC,55.1,"32.6 µM [rising, single point]",–
O=C(CSc1ccc(-c2ccco2)nn1)N1CCCC1,3.25,"0.461 µM [falling, single point]",–
O=C(CSCc1ccccc1F)NCc1ccccc1,15.5,–,–
CC1CCCN(CC(O)COCc2ccccc2)C1 (configuration not stated),13.7,–,"0.206 µM [falling, full curve]"
O=C(NCc1ccc(F)cc1)C1CCN(S(=O)(=O)N2CCOCC2)CC1,24.9,–,–
O=C(c1cccc(S(=O)(=O)N2CCCC2)c1)N1CCCC(C(F)(F)F)C1 (configuration not stated),50,"29.1 µM [rising, single point]","1.46 µM [rising, partial curve]"
COc1cc(C(=O)NNC(=O)c2cccn2C)cc(OC)c1OC,-5.38,–,"0.731 µM [rising, single point]"
O=C(COc1cccc(F)c1)NNC(=O)Cc1ccc(Br)cc1,-9.33,–,"0.146 µM [falling, full curve, poor fit]"
N#C/C(=C\c1cc2ccccc2nc1N1CCOCC1)C(=O)Nc1ccc(N2CCOCC2)cc1,-42.6,"2.91 µM [rising, single point]",–
Cc1ccc(C)c(S(=O)(=O)Nc2ccc(S(=O)(=O)Nc3ncccn3)cc2)c1,0.807,–,"29.1 µM [falling, single point]"
CC1CCC(NC(=O)c2cc3ccccc3cc2O)CC1 (configuration not stated),-9.99,–,–
CCOc1ccc(S(=O)(=O)N2CCCCC2)c(C)c1C,-13.1,–,"3.26 µM [falling, full curve]"
C/C(=N/NC(=O)c1nnn(-c2nonc2N)c1COc1ccccc1)c1ccccc1,56.6,"1.64 µM [rising, partial curve, poor fit]",–
COC(=O)C1(C#N)C(c2ccccc2)C1(C(=O)OC)C(=O)OC (configuration not stated),–,"3.66 µM [falling, partial curve]","6.51 µM [falling, single point]"
CCOP(=O)(OCC)c1nc(-c2ccc(C)cc2)oc1NCc1ccccc1,-2.33,–,–
CC12CCC(C(=O)N(CSC(=S)N/N=C\c3ccccc3Cl)C1=O)C2(C)C (configuration not stated),-20.9,–,"29.1 µM [rising, single point]"

# Reference: PubChem BioAssay AID2685 (National Center for Advancing Translational Sciences (NCATS), 2010)
